Patent US20110297235A1, “USE OF TRIARYLAMINE DERIVATIVES AS HOLE-CONDUCTING MATERIALS IN ORGANIC SOLAR CELLS AND ORGANIC SOLAR CELLS CONTAINING SAID TRIARYLAMINE DERIVATIVES” (BASF SE, priority 2009, published 2011)

Test: Test in solid dye solar cells (DSC): current/voltage characteristic under solar simulator
[1] = 0.1 sun, dye D102, TiO2 approx. 1.8 μm
[2] = 0.1 sun, dye D205, TiO2 approx. 1.8 μm
[3] = 0.1 sun, dye perylene 1, TiO2 approx. 1.8 μm
[4] = 0.1 sun, dye perylene 2, TiO2 approx. 1.8 μm
[5] = 1 sun, dye D102, TiO2 approx. 1.8 μm
[6] = 1 sun, dye D205, TiO2 approx. 1.8 μm
[7] = 1 sun, dye perylene 1, TiO2 approx. 1.8 μm
[8] = 1 sun, dye perylene 2, TiO2 approx. 1.8 μm
[9] = 0.1 sun, dye D102, TiO2 approx. 2.2 μm
[10] = 1 sun, dye D102, TiO2 approx. 2.2 μm
[11] = 0.1 sun, dye perylene 3, TiO2 approx. 3.1 μm
[12] = 1 sun, dye perylene 3, TiO2 approx. 3.1 μm

With COc1ccc(N(c2ccc(OC)cc2)c2ccc(-c3ccc(N(c4ccc(OC)cc4)c4ccc(-c5ccc(N(c6ccc(OC)cc6)c6ccc(-c7ccc(N(c8ccc(OC)cc8)c8ccc(OC)cc8)cc7)cc6)cc5)cc4)cc3)cc2)cc1 [ID367] the efficiency [1] was 5.3%, the “fill factor (FF)” value [1] was 68% and the “short-circuit current density ISC” value [1] was 1.01 mA/cm^2. The “terminal voltage VOC with an open circuit” value (shortened to “terminal voltage VOC”) [1] was 0.78 V, the efficiency [2] was 5.4% and the “fill factor (FF)” value [2] was 70%. For the same compound, the “short-circuit current density ISC” value [2] was 0.97 mA/cm^2, the “terminal voltage VOC” value [2] was 0.80 V and the efficiency [3] was 1.3%. For the same compound, the “fill factor (FF)” value [3] was 53%, the “short-circuit current density ISC” value [3] was 0.38 mA/cm^2 and the “terminal voltage VOC” value [3] was 0.66 V. The efficiency [4] was 2.3%, the “fill factor (FF)” value [4] was 68% and the “short-circuit current density ISC” value [4] was 0.42 mA/cm^2. For the same compound, the “terminal voltage VOC” value [4] was 0.78 V, the efficiency [5] was 4.4% and the “fill factor (FF)” value [5] was 53%. The “short-circuit current density ISC” value [5] was 9.76 mA/cm^2, the “terminal voltage VOC” value [5] was 0.86 V and the efficiency [6] was 3.7%. The “fill factor (FF)” value [6] was 46%, the “short-circuit current density ISC” value [6] was 8.92 mA/cm^2 and the “terminal voltage VOC” value [6] was 0.88 V. For the same compound, the efficiency [7] was 1.1%, the “fill factor (FF)” value [7] was 51% and the “short-circuit current density ISC” value [7] was 2.78 mA/cm^2. The “terminal voltage VOC” value [7] was 0.74 V, the efficiency [8] was 2.0% and the “fill factor (FF)” value [8] was 54%. The “short-circuit current density ISC” value [8] was 4.39 mA/cm^2 and the “terminal voltage VOC” value [8] was 0.84 V.
With COc1ccc(N(c2ccc(OC)cc2)c2ccc(-c3ccc(N(c4ccc(OC)cc4)c4ccc5c(c4)C(C)(C)c4cc(N(c6ccc(OC)cc6)c6ccc(-c7ccc(N(c8ccc(OC)cc8)c8ccc(OC)cc8)cc7)cc6)ccc4-5)cc3)cc2)cc1 [ID447] the efficiency [1] was 3.8%, the “fill factor (FF)” value [1] was 56% and the “short-circuit current density ISC” value [1] was 0.91 mA/cm^2. The “terminal voltage VOC” value [1] was 0.72 V, the efficiency [5] was 1.8% and the “fill factor (FF)” value [5] was 33%. For the same compound, the “short-circuit current density ISC” value [5] was 6.95 mA/cm^2 and the “terminal voltage VOC” value [5] was 0.78 V.
For COc1ccc(N(c2ccc(-c3ccc(N(c4ccc(OC)cc4)c4ccc(-c5ccc(N(c6ccc(OC)cc6)c6ccc7c(c6)C(C)(C)c6ccccc6-7)cc5)cc4)cc3)cc2)c2ccc(-c3ccc(N(c4ccc(OC)cc4)c4ccc5c(c4)C(C)(C)c4ccccc4-5)cc3)cc2)cc1 [ID453], the efficiency [1] was 4.5%, the “fill factor (FF)” value [1] was 61% and the “short-circuit current density ISC” value [1] was 0.87 mA/cm^2. For the same compound, the “terminal voltage VOC” value [1] was 0.84 V, the efficiency [5] was 2.3% and the “fill factor (FF)” value [5] was 34%. For the same compound, the “short-circuit current density ISC” value [5] was 7.75 mA/cm^2 and the “terminal voltage VOC” value [5] was 0.90 V.
For COc1ccc(N(c2ccc(OC)cc2)c2ccc3c(c2)C(C)(C)c2cc(N(c4ccc(OC)cc4)c4ccc(-c5ccc(N(c6ccc(OC)cc6)c6ccc7c(c6)C(C)(C)c6cc(N(c8ccc(OC)cc8)c8ccc(OC)cc8)ccc6-7)cc5)cc4)ccc2-3)cc1 [ID518], the efficiency (0.1 sun, dye D205, TiO2 3.2 μm) was 3.8%, the “fill factor (FF)” value (0.1 sun, dye D205, TiO2 3.2 μm) was 63% and the “short-circuit current density ISC” value (0.1 sun, dye D205, TiO2 3.2 μm) was 0.81 mA/cm^2. The “terminal voltage VOC” value (0.1 sun, dye D205, TiO2 3.2 μm) was 0.74 V, the efficiency (1 sun, dye D205, TiO2 3.2 μm) was 2.3% and the “fill factor (FF)” value (1 sun, dye D205, TiO2 3.2 μm) was 33%. For the same compound, the “short-circuit current density ISC” value (1 sun, dye D205, TiO2 3.2 μm) was 8.57 mA/cm^2 and the “terminal voltage VOC” value (1 sun, dye D205, TiO2 3.2 μm) was 0.82 V.
In the case of COc1ccc(N(c2ccc(OC)cc2)c2ccc(-c3ccc(N(c4ccc(OC)cc4)c4ccc5c(c4)c4cc(N(c6ccc(OC)cc6)c6ccc(-c7ccc(N(c8ccc(OC)cc8)c8ccc(OC)cc8)cc7)cc6)ccc4n5-c4ccccc4)cc3)cc2)cc1 [ID522], the efficiency [9] is reported as 4.4%, the “fill factor (FF)” value [9] is reported as 69% and the “short-circuit current density ISC” value [9] is reported as 0.83 mA/cm^2. The “terminal voltage VOC” value [9] was 0.76 V, the efficiency (0.1 sun, dye D205, TiO2 3.2 μm) was 2.7% and the “fill factor (FF)” value (0.1 sun, dye D205, TiO2 3.2 μm) was 64%. For the same compound, the “short-circuit current density ISC” value (0.1 sun, dye D205, TiO2 3.2 μm) was 0.56 mA/cm^2, the “terminal voltage VOC” value (0.1 sun, dye D205, TiO2 3.2 μm) was 0.74 V and the efficiency [10] was 3.3%. The “fill factor (FF)” value [10] was 45%, the “short-circuit current density ISC” value [10] was 8.77 mA/cm^2 and the “terminal voltage VOC” value [10] was 0.84 V. The efficiency (1 sun, dye D205, TiO2 3.2 μm) was 2.8%, the “fill factor (FF)” value (1 sun, dye D205, TiO2 3.2 μm) was 51% and the “short-circuit current density ISC” value (1 sun, dye D205, TiO2 3.2 μm) was 6.57 mA/cm^2. For the same compound, the “terminal voltage VOC” value (1 sun, dye D205, TiO2 3.2 μm) was 0.84 V.
For COc1ccc(N(c2ccc(OC)cc2)c2ccc(-c3ccc(N(c4ccc(OC)cc4)c4ccc5c(c4)Cc4cc(N(c6ccc(OC)cc6)c6ccc(-c7ccc(N(c8ccc(OC)cc8)c8ccc(OC)cc8)cc7)cc6)ccc4-5)cc3)cc2)cc1 [ID523], the efficiency (0.1 sun, dye D205, TiO2 3.2 μm) was 4.1%, the “fill factor (FF)” value (0.1 sun, dye D205, TiO2 3.2 μm) was 58% and the “short-circuit current density ISC” value (0.1 sun, dye D205, TiO2 3.2 μm) was 0.95 mA/cm^2. For the same compound, the “terminal voltage VOC” value (0.1 sun, dye D205, TiO2 3.2 μm) was 0.74 V, the efficiency [11] was 0.9% and the “fill factor (FF)” value [11] was 64%. The “short-circuit current density ISC” value [11] was 0.21 mA/cm^2, the “terminal voltage VOC” value [11] was 0.64 V and the efficiency (1 sun, dye D205, TiO2 3.2 μm) was 1.8%. For the same compound, the “fill factor (FF)” value (1 sun, dye D205, TiO2 3.2 μm) was 34%, the “short-circuit current density ISC” value (1 sun, dye D205, TiO2 3.2 μm) was 6.76 mA/cm^2 and the “terminal voltage VOC” value (1 sun, dye D205, TiO2 3.2 μm) was 0.80 V. For the same compound, the efficiency [12] was 1.3%, the “fill factor (FF)” value [12] was 59% and the “short-circuit current density ISC” value [12] was 3.40 mA/cm^2. For the same compound, the “terminal voltage VOC” value [12] was 0.66 V.
In the case of COc1ccc(N(c2ccc(C)cc2)c2ccc(-c3ccc(N(c4ccc(OC)cc4)c4ccc(-c5ccc(N(c6ccc(OC)cc6)c6ccc(-c7ccc(N(c8ccc(C)cc8)c8ccc(OC)cc8)cc7)cc6)cc5)cc4)cc3)cc2)cc1 [ID572], the efficiency [1] is reported as 4.5%, the “fill factor (FF)” value [1] is reported as 58% and the “short-circuit current density ISC” value [1] is reported as 0.91 mA/cm^2. For the same compound, the “terminal voltage VOC” value [1] was 0.84 V, the efficiency [5] was 3.1% and the “fill factor (FF)” value [5] was 40%. For the same compound, the “short-circuit current density ISC” value [5] was 8.52 mA/cm^2 and the “terminal voltage VOC” value [5] was 0.92 V.
For COc1ccc(N(c2ccc(OC)cc2)c2ccc3c(c2)C2(c4cc(N(c5ccc(OC)cc5)c5ccc(OC)cc5)ccc4-3)c3cc(N(c4ccc(OC)cc4)c4ccc(OC)cc4)ccc3-c3ccc(N(c4ccc(OC)cc4)c4ccc(OC)cc4)cc32)cc1 [spiro-MeOTAD, 2,2′,7,7′-tetrakis(N,N-di-p-methoxyphenyl-amine)-9,9′-spirobifluorene, reference compound], the efficiency [1] was 5.6%, the “fill factor (FF)” value [1] was 69% and the “short-circuit current density ISC” value [1] was 1.10 mA/cm^2. The “terminal voltage VOC” value [1] was 0.74 V, the efficiency [9] was 4.7% and the “fill factor (FF)” value [9] was 69%. The “short-circuit current density ISC” value [9] was 0.92 mA/cm^2, the “terminal voltage VOC” value [9] was 0.74 V and the efficiency (0.1 sun, dye D205, TiO2 3.2 μm) was 4.7%. The “fill factor (FF)” value (0.1 sun, dye D205, TiO2 3.2 μm) was 68%, the “short-circuit current density ISC” value (0.1 sun, dye D205, TiO2 3.2 μm) was 0.95 mA/cm^2 and the “terminal voltage VOC” value (0.1 sun, dye D205, TiO2 3.2 μm) was 0.72 V. For the same compound, the efficiency [2] was 4.9%, the “fill factor (FF)” value [2] was 68% and the “short-circuit current density ISC” value [2] was 0.96 mA/cm^2. For the same compound, the “terminal voltage VOC” value [2] was 0.76 V, the efficiency [3] was 1.2% and the “fill factor (FF)” value [3] was 55%. The “short-circuit current density ISC” value [3] was 0.37 mA/cm^2, the “terminal voltage VOC” value [3] was 0.60 V and the efficiency [4] was 2.7%. The “fill factor (FF)” value [4] was 70%, the “short-circuit current density ISC” value [4] was 0.52 mA/cm^2 and the “terminal voltage VOC” value [4] was 0.74 V. For the same compound, the efficiency [11] was 1.0%, the “fill factor (FF)” value [11] was 66% and the “short-circuit current density ISC” value [11] was 0.25 mA/cm^2. The “terminal voltage VOC” value [11] was 0.62 V, the efficiency [5] was 4.0% and the “fill factor (FF)” value [5] was 47%. For the same compound, the “short-circuit current density ISC” value [5] was 10.60 mA/cm^2, the “terminal voltage VOC” value [5] was 0.80 V and the efficiency [10] was 3.7%. The “fill factor (FF)” value [10] was 50%, the “short-circuit current density ISC” value [10] was 9.10 mA/cm^2 and the “terminal voltage VOC” value [10] was 0.82 V. For the same compound, the efficiency (1 sun, dye D205, TiO2 3.2 μm) was 2.9%, the “fill factor (FF)” value (1 sun, dye D205, TiO2 3.2 μm) was 37% and the “short-circuit current density ISC” value (1 sun, dye D205, TiO2 3.2 μm) was 10.0 mA/cm^2. For the same compound, the “terminal voltage VOC” value (1 sun, dye D205, TiO2 3.2 μm) was 0.78 V, the efficiency [6] was 3.9% and the “fill factor (FF)” value [6] was 49%. For the same compound, the “short-circuit current density ISC” value [6] was 9.32 mA/cm^2, the “terminal voltage VOC” value [6] was 0.86 V and the efficiency [7] was 0.9%. For the same compound, the “fill factor (FF)” value [7] was 54%, the “short-circuit current density ISC” value [7] was 2.58 mA/cm^2 and the “terminal voltage VOC” value [7] was 0.68 V. For the same compound, the efficiency [8] was 2.9%, the “fill factor (FF)” value [8] was 56% and the “short-circuit current density ISC” value [8] was 6.87 mA/cm^2. For the same compound, the “terminal voltage VOC” value [8] was 0.76 V, the efficiency [12] was 1.5% and the “fill factor (FF)” value [12] was 57%. The “short-circuit current density ISC” value [12] was 3.97 mA/cm^2 and the “terminal voltage VOC” value [12] was 0.66 V.
